Data reported in the supplement of paper PMC12067093, “Discovery and optimisation of a covalent ligand for TRIM25 and its application to targeted protein ubiquitination” (Chemical Science, 2025).
Some of the results follow.

The chains behind the UniProt entries cited, without tags or fusion partners. Where a name states a change or a piece, a line headed by the entry shows the natural chain unless it says otherwise.
UniProt Q8WVE0: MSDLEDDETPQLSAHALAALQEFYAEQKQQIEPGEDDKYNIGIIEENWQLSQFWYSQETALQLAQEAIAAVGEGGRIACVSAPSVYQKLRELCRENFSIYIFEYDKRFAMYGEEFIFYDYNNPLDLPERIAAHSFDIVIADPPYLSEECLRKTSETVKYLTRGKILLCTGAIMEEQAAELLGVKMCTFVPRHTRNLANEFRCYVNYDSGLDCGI
UniProt P41567, whole entry, looked up: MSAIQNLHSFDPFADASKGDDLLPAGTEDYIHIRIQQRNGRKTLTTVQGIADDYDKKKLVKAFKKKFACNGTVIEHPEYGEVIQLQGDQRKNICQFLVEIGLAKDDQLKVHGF
UniProt Q96F86: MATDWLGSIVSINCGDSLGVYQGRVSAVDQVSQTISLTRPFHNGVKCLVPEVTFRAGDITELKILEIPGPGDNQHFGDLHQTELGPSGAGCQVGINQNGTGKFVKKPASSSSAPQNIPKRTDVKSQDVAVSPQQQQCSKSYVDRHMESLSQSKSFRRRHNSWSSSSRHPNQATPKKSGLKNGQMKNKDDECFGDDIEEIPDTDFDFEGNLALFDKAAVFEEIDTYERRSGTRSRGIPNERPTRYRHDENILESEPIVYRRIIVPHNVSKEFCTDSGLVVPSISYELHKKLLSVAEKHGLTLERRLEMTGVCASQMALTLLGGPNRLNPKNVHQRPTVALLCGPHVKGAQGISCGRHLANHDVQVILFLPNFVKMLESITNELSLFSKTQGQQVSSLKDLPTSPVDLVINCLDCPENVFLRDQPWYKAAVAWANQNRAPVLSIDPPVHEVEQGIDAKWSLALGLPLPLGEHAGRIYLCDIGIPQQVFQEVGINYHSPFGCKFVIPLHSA
UniProt Q16610: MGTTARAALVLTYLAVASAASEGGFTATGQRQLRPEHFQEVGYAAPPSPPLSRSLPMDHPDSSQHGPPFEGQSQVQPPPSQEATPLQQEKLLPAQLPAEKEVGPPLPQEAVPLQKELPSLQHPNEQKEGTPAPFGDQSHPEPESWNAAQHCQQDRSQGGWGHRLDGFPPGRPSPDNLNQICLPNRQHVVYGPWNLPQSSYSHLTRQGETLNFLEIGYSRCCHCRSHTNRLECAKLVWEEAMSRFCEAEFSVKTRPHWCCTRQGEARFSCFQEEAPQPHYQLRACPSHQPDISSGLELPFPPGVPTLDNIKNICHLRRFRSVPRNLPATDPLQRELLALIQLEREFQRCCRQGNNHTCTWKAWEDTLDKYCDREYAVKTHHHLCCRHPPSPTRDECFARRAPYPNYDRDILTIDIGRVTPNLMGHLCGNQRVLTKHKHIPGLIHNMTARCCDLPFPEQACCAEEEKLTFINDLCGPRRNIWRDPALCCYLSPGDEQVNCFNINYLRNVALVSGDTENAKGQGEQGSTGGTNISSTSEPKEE
UniProt P41091, whole entry, looked up: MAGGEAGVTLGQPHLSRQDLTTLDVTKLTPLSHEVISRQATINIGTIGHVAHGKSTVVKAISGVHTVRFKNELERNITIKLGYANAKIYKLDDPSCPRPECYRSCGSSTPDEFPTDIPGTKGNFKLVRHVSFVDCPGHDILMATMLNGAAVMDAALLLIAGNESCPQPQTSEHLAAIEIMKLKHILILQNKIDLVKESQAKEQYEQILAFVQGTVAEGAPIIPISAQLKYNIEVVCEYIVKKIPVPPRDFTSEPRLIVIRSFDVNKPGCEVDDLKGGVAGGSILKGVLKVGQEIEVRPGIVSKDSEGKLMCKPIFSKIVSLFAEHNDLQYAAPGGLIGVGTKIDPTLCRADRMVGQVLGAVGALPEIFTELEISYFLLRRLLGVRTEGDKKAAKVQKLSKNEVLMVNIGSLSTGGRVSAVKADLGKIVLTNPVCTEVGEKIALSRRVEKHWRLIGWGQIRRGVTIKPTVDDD
UniProt Q9UHF1: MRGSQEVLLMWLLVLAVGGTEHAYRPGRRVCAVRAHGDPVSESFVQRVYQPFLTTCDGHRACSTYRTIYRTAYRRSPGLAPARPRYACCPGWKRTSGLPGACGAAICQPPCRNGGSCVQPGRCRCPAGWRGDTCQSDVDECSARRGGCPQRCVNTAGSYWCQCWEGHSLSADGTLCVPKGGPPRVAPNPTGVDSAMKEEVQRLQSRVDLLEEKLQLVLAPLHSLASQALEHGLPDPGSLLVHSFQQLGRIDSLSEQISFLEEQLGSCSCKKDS
UniProt P55884, whole entry, looked up: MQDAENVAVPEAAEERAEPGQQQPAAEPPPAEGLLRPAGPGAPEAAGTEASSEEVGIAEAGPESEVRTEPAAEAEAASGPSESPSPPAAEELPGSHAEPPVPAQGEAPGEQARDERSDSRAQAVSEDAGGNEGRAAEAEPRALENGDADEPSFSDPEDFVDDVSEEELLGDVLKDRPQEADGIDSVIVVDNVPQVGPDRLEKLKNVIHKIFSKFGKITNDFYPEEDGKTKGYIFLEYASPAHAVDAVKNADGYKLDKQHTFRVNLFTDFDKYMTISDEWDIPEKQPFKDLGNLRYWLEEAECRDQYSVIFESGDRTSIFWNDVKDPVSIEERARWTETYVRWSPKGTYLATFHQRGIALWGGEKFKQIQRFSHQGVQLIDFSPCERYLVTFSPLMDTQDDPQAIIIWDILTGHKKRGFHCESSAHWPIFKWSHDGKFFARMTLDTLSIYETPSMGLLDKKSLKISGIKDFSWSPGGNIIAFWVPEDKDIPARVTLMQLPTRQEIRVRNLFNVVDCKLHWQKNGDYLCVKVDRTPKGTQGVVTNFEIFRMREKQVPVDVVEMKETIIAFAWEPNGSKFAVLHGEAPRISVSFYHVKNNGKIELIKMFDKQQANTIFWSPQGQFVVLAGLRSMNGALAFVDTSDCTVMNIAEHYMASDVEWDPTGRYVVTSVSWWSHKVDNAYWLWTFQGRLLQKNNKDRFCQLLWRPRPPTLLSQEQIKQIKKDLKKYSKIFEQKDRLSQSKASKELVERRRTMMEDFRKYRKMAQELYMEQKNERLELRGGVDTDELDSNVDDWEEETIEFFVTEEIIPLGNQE
UniProt Q08426: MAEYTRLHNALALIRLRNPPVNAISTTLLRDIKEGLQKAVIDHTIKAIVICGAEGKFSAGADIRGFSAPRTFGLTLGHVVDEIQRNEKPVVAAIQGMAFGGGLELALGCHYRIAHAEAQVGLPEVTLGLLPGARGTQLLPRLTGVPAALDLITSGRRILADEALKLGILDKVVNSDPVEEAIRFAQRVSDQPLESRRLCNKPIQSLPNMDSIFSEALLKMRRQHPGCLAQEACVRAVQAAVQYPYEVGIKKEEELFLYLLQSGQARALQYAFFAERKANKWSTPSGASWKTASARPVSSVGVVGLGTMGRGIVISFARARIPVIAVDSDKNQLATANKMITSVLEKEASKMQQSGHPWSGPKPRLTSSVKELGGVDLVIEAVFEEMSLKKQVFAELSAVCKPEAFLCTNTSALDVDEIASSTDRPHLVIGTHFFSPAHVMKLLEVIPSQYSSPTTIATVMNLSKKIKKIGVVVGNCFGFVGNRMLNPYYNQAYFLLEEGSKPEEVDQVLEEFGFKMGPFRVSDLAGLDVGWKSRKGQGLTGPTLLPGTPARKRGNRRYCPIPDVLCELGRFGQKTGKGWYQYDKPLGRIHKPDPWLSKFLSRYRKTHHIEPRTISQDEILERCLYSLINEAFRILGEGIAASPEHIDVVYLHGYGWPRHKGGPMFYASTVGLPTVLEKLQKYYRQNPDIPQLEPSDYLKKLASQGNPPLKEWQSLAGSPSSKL
UniProt Q9H8V3: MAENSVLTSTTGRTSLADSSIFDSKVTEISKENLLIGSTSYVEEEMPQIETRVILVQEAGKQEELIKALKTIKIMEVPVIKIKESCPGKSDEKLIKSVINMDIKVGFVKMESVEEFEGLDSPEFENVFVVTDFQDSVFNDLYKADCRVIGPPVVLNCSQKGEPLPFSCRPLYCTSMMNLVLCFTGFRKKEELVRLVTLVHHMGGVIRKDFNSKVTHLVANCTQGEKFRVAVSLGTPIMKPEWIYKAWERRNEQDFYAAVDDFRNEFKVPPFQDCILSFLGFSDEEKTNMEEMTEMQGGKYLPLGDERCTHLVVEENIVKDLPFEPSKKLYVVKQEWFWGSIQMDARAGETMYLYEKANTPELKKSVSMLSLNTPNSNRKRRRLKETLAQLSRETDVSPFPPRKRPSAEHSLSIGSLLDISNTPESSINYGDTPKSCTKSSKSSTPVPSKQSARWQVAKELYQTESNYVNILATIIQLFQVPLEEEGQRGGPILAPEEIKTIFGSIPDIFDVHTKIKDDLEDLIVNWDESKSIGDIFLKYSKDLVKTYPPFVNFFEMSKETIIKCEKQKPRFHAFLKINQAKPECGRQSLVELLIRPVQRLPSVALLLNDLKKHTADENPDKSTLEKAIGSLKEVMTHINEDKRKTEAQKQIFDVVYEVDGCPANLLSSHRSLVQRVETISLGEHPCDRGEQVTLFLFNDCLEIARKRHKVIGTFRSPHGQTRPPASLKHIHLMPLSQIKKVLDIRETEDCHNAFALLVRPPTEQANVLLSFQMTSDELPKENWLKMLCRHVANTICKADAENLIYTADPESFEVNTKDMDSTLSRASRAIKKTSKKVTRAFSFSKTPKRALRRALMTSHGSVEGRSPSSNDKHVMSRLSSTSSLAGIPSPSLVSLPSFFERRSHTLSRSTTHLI
UniProt O43324: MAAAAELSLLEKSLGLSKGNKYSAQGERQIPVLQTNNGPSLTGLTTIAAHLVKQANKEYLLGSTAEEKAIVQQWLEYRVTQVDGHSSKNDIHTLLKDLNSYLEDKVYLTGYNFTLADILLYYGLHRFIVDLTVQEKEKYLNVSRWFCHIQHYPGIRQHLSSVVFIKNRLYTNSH
UniProt P20042, whole entry, looked up: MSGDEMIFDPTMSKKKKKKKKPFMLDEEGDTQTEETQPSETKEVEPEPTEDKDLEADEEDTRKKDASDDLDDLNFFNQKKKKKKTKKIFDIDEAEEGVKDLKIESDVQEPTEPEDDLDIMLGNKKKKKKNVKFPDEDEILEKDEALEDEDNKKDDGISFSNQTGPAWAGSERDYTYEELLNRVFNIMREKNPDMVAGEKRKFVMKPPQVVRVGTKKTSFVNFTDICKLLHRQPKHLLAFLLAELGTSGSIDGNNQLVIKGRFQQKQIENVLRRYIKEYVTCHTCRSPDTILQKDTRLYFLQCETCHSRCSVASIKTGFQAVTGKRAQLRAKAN
UniProt Q13011: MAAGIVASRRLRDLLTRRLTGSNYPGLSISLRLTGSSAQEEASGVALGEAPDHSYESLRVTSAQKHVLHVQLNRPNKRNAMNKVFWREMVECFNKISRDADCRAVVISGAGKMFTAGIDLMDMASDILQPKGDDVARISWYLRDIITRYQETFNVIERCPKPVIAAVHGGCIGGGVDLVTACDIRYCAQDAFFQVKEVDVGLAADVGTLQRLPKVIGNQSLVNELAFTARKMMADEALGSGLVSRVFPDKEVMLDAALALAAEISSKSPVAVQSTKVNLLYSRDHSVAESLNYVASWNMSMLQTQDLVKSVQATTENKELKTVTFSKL
UniProt P57772: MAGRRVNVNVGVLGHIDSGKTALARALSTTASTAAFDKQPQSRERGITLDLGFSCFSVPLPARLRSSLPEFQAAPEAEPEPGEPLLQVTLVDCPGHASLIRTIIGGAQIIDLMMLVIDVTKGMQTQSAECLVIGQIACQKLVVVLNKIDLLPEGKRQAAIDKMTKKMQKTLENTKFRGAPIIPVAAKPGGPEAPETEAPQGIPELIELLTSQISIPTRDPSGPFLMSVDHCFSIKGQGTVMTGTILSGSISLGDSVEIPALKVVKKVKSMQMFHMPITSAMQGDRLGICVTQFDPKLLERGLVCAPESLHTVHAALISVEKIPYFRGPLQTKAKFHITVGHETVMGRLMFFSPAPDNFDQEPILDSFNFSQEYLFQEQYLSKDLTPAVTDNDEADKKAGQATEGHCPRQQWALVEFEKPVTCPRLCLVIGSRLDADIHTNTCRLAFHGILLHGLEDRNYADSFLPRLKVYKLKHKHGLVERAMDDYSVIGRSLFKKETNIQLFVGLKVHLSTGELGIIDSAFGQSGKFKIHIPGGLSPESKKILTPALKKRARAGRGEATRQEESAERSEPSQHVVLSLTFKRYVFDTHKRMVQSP
UniProt Q9NR50: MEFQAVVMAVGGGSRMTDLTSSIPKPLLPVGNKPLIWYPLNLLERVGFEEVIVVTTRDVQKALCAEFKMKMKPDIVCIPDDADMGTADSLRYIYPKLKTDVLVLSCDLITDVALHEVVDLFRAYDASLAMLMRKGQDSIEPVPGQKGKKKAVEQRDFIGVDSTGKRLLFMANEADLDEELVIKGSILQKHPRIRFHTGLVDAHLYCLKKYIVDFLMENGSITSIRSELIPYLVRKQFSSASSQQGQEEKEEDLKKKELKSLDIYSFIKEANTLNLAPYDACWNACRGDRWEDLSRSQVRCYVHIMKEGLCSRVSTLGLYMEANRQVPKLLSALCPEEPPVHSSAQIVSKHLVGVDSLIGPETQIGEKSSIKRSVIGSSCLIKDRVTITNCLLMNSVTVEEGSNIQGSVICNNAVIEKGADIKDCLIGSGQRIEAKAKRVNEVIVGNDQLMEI

These targets were tested with CC1Cc2ccccc2N1C(=O)C1CCCN(C1)C(=O)CCl (mixture of isomers) [TRIM25 ligand 11 (diastereomer mixture)] (assay: probe-labelled cysteine peptide fold change vs DMSO (competition) (log2 fold change); higher = less target engagement (more negative = stronger competition)). Settings: 10 µM; THP-1; incubation time: 4 h.
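Also: competitive chemoproteomic profiling in live THP-1 cells with an iodoacetamide desthiobiotin (IA-DTB) probe, comparing probe-labelled peptide intensities in compound-treated cells against DMSO-treated controls.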

Row | Target | probe-labelled cysteine peptide fold change
1 | EEF1AKMT1_Q8WVE0_79_IACVSAPSVYQK (UniProt Q8WVE0) | 0.205
2 | EIF1_P41567_94_NICQFLVEIGLAKDDQLK (UniProt P41567) | -1.14
3 | EDC3_Q96F86_353_GAQGISCGR (UniProt Q96F86) | -0.071
4 | ECM1_Q16610_395_HPPSPTRDECFAR (UniProt Q16610) | 0.017
5 | EIF2S3_P41091_311_LMCKPIFSK (UniProt P41091) | -0.491
6 | EGFL7_Q9UHF1_267+269_IDSLSEQISFLEEQLGSCSCKK (UniProt Q9UHF1) | 0.39
7 | EIF3B_P55884_302_YWLEEAECR (UniProt P55884) | 0.292
8 | EHHADH_Q08426_199_RLCNKPIQSLPNMDSIFSEALLK (UniProt Q08426) | -0.246
9 | ECT2_Q9H8V3_796_HVANTICK (UniProt Q9H8V3) | 0.106
10 | EFHD2_Q96C19_172_KAAAGELQEDSGLCVLAR (UniProt Q96C19) | -0.186
11 | EEF1E1_O43324_147_WFCHIQHYPGIR (UniProt O43324) | 0.0691
12 | EIF2S2_P20042_305_LYFLQCETCHSR (UniProt P20042) | -0.0423
13 | EFEMP1_Q12805_377_CVCPVSNAMCR (UniProt Q12805) | 0.364
14 | ECD_O95905_312_LAHGFEILCSK (UniProt O95905) | -0.121
15 | EEF1A1_P68104_234_DGNASGTTLLEALDCILPPTR (UniProt P68104) | -0.244
16 | ECH1_Q13011_92_EMVECFNK (UniProt Q13011) | -0.0437
17 | ECH1_Q13011_159_CPKPVIAAVHGGCIGGGVDLVTACDIR (UniProt Q13011) | -0.0604
18 | EIF2AK4_Q9P2K8_285_CIGSDEQLGK (UniProt Q9P2K8) | 0.141
19 | EDC3_Q96F86_311_LEMTGVCASQMALTLLGGPNR (UniProt Q96F86) | -0.36
20 | ECH1_Q13011_187_YCAQDAFFQVK (UniProt Q13011) | 0.0159
21 | ECHS1_P30084_213_ICPVETLVEEAIQCAEK (UniProt P30084) | -0.106
22 | EDC4_Q6P2E9_838_ETCSTLAESPR (UniProt Q6P2E9) | -0.0668

Same assay, conditions: 50 µM; THP-1; incubation time: 4 h

Row | Target | probe-labelled cysteine peptide fold change
23 | EFNB1_P98172_89+101_LYLVRPEQAAACSTVLDPNVLVTCNRPEQEIR (UniProt P98172) | -0.0576
24 | EIF2S1_P05198_70_NECVVVIRVDK (UniProt P05198) | 0.00188
25 | EIF2S2_P20042_226_TSFVNFTDICK (UniProt P20042) | 0.0811
26 | ECM1_Q16610_450_CCDLPFPEQACCAEEEK (UniProt Q16610) | 0.186
27 | EEFSEC_P57772_289_LGICVTQFDPK (UniProt P57772) | 0.133
28 | ECM1_Q16610_269_FSCFQEEAPQPHYQLR (UniProt Q16610) | 0.858
29 | EIF2B3_Q9NR50_206_FHTGLVDAHLYCLK (UniProt Q9NR50) | 0.223
30 | EED_O75530_182_IINPITMQCIK (UniProt O75530) | -0.0595
31 | ECT2_Q9H8V3_221_VTHLVANCTQGEK (UniProt Q9H8V3) | -0.104
32 | EFL1_Q7Z2Z2_474_LAAAQGQAPLEPTQDGSAIETCPK (UniProt Q7Z2Z2) | -0.0745
33 | ECT2_Q9H8V3_661_QIFDVVYEVDGCPANLLSSHR (UniProt Q9H8V3) | -0.00801
34 | EDC3_Q96F86_341_NVHQRPTVALLCGPHVK (UniProt Q96F86) | 0.0282
35 | EI24_O14681_24_DSIWGICTISK (UniProt O14681) | -0.183
36 | ECPAS_Q5VYK3_602_MCLAHSAGVVPTSQSLADMQDHAPAIGR (UniProt Q5VYK3) | -0.0584
37 | EEF1A1_P68104_363+370_GNVAGDSKNDPPMEAAGFTAQVIILNHPGQISAGYAPVLDCHTAHIACK (UniProt P68104) | -0.376
38 | EEF1AKMT1_Q8WVE0_79_IACVSAPSVYQK (UniProt Q8WVE0) | -0.00479
39 | EIF1_P41567_94_NICQFLVEIGLAKDDQLK (UniProt P41567) | -0.0838
40 | EDC3_Q96F86_353_GAQGISCGR (UniProt Q96F86) | 0.0418
41 | ECM1_Q16610_395_HPPSPTRDECFAR (UniProt Q16610) | 0.113
42 | EIF2S3_P41091_311_LMCKPIFSK (UniProt P41091) | -0.529
43 | EGFL7_Q9UHF1_267+269_IDSLSEQISFLEEQLGSCSCKK (UniProt Q9UHF1) | 0.235
44 | EIF3B_P55884_302_YWLEEAECR (UniProt P55884) | 0.137
